Percent effect of library compounds

By UniProt entry, the sequences of proteins in these tests, tags left out. Residues count along the entry.
UniProt P9WPC5, whole entry: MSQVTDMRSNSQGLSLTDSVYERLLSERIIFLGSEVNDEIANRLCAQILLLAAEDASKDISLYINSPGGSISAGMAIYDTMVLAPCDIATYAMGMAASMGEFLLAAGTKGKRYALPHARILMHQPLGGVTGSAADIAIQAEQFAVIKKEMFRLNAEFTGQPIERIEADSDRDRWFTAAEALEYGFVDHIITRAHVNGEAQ
UniProt P9WPC3, whole entry partner: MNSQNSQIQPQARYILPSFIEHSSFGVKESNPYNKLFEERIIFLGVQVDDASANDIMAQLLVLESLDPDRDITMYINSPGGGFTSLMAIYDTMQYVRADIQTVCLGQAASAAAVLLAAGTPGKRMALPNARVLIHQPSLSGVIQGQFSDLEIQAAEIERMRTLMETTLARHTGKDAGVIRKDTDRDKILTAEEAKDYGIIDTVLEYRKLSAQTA
UniProt P9WFT3, whole entry: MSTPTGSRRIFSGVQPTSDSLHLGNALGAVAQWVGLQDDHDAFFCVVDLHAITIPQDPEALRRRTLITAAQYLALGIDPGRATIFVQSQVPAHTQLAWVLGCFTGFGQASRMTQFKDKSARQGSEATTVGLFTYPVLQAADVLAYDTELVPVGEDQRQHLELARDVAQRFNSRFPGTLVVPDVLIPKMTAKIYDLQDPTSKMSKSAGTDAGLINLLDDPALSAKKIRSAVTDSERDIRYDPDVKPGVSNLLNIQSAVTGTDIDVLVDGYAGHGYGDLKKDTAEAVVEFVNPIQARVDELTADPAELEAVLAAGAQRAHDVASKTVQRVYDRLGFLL
UniProt I6X8D2, whole entry: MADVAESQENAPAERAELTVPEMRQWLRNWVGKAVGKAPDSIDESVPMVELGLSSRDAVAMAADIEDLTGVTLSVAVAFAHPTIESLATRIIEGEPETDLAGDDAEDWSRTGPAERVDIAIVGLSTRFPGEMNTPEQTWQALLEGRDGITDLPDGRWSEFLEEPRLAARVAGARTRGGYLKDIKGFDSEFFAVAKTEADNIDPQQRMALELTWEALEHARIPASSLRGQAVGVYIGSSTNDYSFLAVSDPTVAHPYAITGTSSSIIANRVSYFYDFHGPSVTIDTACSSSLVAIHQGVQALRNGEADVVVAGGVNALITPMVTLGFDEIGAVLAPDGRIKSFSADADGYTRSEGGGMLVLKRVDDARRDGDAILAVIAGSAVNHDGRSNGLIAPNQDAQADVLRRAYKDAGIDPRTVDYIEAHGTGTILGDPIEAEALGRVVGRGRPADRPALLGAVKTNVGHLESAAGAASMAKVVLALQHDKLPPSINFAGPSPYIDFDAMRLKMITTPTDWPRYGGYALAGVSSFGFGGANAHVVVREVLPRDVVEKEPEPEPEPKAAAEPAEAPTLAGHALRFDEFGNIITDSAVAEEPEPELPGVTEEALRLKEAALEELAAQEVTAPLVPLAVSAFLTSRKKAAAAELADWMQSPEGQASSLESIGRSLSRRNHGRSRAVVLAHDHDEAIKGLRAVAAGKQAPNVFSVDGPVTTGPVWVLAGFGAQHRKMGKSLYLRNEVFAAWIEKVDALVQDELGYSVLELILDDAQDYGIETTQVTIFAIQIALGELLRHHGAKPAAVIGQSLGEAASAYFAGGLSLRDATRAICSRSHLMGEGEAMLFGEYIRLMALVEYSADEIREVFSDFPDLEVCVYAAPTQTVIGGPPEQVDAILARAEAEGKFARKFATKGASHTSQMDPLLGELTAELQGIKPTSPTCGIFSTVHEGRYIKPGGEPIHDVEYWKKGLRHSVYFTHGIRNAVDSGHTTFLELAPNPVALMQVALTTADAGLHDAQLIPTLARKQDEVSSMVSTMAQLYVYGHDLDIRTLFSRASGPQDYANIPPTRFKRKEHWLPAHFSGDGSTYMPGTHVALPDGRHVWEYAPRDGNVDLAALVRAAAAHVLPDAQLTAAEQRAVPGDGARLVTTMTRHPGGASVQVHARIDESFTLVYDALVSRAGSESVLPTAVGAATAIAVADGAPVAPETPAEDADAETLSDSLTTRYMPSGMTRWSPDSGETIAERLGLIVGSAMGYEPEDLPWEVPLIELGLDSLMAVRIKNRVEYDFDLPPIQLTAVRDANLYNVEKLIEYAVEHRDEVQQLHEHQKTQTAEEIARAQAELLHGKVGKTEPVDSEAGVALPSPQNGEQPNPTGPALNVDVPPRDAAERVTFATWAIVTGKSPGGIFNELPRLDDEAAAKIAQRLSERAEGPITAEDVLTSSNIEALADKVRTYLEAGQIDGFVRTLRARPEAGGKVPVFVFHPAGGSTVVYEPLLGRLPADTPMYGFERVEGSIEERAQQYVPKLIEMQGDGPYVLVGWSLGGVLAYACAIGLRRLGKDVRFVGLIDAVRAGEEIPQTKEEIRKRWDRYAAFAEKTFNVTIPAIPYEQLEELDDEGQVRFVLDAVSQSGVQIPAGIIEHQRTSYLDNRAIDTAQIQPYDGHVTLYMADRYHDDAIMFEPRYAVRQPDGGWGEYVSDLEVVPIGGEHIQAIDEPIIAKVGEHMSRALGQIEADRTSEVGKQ
UniProt Q8IDJ8, 1-583: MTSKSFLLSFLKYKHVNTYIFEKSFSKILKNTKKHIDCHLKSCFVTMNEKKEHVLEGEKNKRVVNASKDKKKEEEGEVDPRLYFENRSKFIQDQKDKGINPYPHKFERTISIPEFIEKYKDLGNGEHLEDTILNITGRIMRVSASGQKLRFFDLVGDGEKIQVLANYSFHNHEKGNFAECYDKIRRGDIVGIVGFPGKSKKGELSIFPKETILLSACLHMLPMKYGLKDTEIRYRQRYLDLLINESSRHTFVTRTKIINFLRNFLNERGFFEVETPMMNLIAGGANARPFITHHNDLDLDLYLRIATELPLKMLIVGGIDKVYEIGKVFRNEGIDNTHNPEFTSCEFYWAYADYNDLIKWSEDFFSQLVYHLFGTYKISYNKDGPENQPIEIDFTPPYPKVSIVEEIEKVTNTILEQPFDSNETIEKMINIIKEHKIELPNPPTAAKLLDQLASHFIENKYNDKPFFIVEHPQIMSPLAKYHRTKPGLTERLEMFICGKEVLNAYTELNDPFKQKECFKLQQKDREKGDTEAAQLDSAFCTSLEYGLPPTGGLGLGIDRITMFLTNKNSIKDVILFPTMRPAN

From ChEMBL document CHEMBL3988442, “University of Dundee, Small-Polar-MMV Screening Library” (2021).

A: 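ClpP1P2, Mycobacterium tuberculosis (UniProt P9WPC5 and UniProt P9WPC3). Protease assay of ClpP1P2, read by the AMC dye that it sets free. Concentration: 50 µM. Higher reads as stronger inhibition, judged from the few compounds that gave an IC50. Most other retested compounds had strongly negative values. Of about 69,000 compounds tested this way, about 10 (0.015%) reached 50% or more in at least one test.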
B: 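Tryptophan-tRNA ligase, Mycobacterium tuberculosis (UniProt P9WFT3). Enzyme assay of tryptophanyl-tRNA synthetase; the read-out is not stated. Compounds at 10 µM. Higher most likely means stronger inhibition; the record gives no direction and few retests gave an IC50. About 65,000 compounds were tested under these conditions; 0.098% (about 64) showed 50% or more at least once.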
C: 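Enzyme assay of the thioesterase domain of polyketide synthase 13; the read-out is not stated. Target: Polyketide synthase Pks13, Mycobacterium tuberculosis (UniProt I6X8D2). Tested at 30 µM. The record gives no direction; the compounds picked for IC50 retests had high values, so higher reads as stronger inhibition. Of about 67,000 compounds tested this way, about 300 (0.46%) reached 50% or more in at least one test.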
D: 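Lysine-tRNA ligase, Plasmodium falciparum 3D7 (UniProt Q8IDJ8). Enzyme assay of the cytosolic lysyl-tRNA synthetase in 384-well plates, read by luminescence. Tested at 30 µM. Higher reads as stronger inhibition, judged from the few compounds that gave an IC50. Size under these conditions: about 69,000 compounds, about 49 of them at 50% or above in at least one test.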

Values are the deposited “Percent Effect”, in %.
The controls that fix the scale are not given in the record; negative values are as filed.
This is an unselected part of the compounds tested.
A dash means the value is not listed here; it may have been measured.

SMILES	A	B	C	D
COc1ccccc1OC1CN(C(=O)c2ccc(C(C)=O)s2)C1	-5.673	-2.855	-56.53	0.2471
COCCO[C@H]1CCN(c2ccc(C)nn2)[C@H]1Cc1cccnc1	14.12	-	8.724	2.37
CCc1c(C)n(CCC#N)c2nc3ccccc3n2c1=O	-0.721	0.154	-8.169	-1.571
CN1CCCC1c1nccnc1-c1ccc(C(=O)O)cc1 (centres undefined)	23.31	7.26	-4.393	1.068
O=S(=O)(Nc1cnn(C2CCOCC2)c1)c1c(F)cccc1F	-23.05	4.741	-1.499	6.966
Cc1nc(CN(Cc2ccccc2F)C2CCC2)no1	0.007139	-4.874	-20.8	5.357
N#Cc1cccc(N2CC3(CCN(C(=O)C4CC=CC4)C3)CC2=O)c1 (centres undefined)	5.215	1.046	-7.287	4.98
O=C(NCc1csc(-c2cccs2)n1)C1NCCc2[nH]cnc21 (centres undefined)	-12.01	-0.5789	-14.07	2.783
CC(C)Oc1cc(N2CC[C@H](CO)[C@@H](O)C2)nc(N)n1	3.911	-0.4617	-22.91	-0.4912
COC(=O)c1sc(C(F)(F)F)cc1OC	3.674	2.448	-6.034	-0.381
Cc1nc(N2CCCC2)nc2c1CCN(C(=O)N(C)C)CC2	-8.266	1.66	-5.935	2.216
CC(=O)c1c(F)cccc1NC1CCN(C(=O)CC(C)C)CC1	-3.119	13.31	-0.8084	-4.704
Cc1nccn1-c1ccc(=O)n(CCNC(=O)c2ccncc2)n1	-0.3265	3.858	-8.631	0.292
COc1ccccc1C(NCc1ccc(SC)cc1)c1nccn1C (centres undefined)	-26.13	0.8708	-8.485	-1.157
O=C(CCn1cc(Cl)cn1)N1C[C@@H]2CC[C@H](C1)N(Cc1ccccn1)C2	-7.092	3.883	-20.37	6.207
COC(=O)C1CCN(c2cncc(-n3nc(C)cc3C)n2)CC1	-14.1	3.752	23.19	11.02
Cc1cc(CN2CCN(C(=O)NCc3cccs3)CC2)on1	-6.724	-4.655	-6.734	0.4895
Cc1cc2nc(O)c(O)nc2cc1S(=O)(=O)NC1CC1	2.999	-2.441	15.53	7.766
Cn1cc(CN2C[C@H]3CCC[C@@]3(COc3ccccn3)C2)cn1	-4.992	-	-0.1136	4.777
Cc1cc(N2CCc3c(ncn3C)C2)n2nc(C(F)(F)F)nc2n1	-2.31	6.427	13.43	4.301
Cc1ccsc1CNC(=O)NC(C)c1ccc2c(c1)CCC(=O)N2 (centres undefined)	-9.782	-5.366	-7.548	2.102
CN(C)C(CNS(=O)(=O)c1ccc(F)cc1F)c1cccn1C (centres undefined)	-11.7	-2.637	-1.081	3.35
O=C(Cc1ccc2c(c1)OCC2)Nc1nc[nH]n1	-8.704	-0.4428	-8.511	0.8527
NCCc1cccc(CN2CCN(c3ccccc3)C(=O)C2)c1	3.586	0.161	-24.05	2.494
Cc1n[nH]c(C)c1CC(=O)N1CC[C@@](C)(O)[C@H](Oc2ccccc2)C1	-9.173	-7.256	1.149	-0.7925
Cc1nnc(C2CCN(C(=O)c3ccc4[nH]ccc4c3)CC2)s1	-8.368	2.75	-9.115	-0.8419
Cc1cnc(C2(C)CCN(Cc3cscn3)CC2)s1	-10.8	-5.961	0.3451	0.3191
COc1ccc(OC)c(CN2CCCCCC2c2cccs2)c1 (centres undefined)	1.945	12.68	28.53	-1.926
CC(C)(C(=O)NCC(=O)N1CCCC1)c1ccccc1F	0.3226	5.735	-21.5	1.708
O=C(NCCc1c[nH]cn1)c1ccc2c(c1)C(=O)N(C1CCCC1)C2=O	-6.199	1.895	-17.13	1.6
CN1C(=O)c2ccc(C(=O)N(Cc3cnn(C)c3)C3CC3)cc2C1=O	-5.418	1.53	-4.991	0.7211
Cc1cccnc1NCCNC(=O)[C@H]1CNC[C@@H](C(=O)N2CCCC2)C1	0.1341	-0.08224	-12.22	4.311
CC(=O)N1CCC2(C=C(C(=O)NC3CC3)c3ccccc32)CC1	-7.262	-1.017	-10.05	0.8968
Cc1ccnc(NC(=O)c2[nH]nc(C(C)C)c2Br)c1	-2.013	-48.36	-	-3.902
CS(=O)(=O)N1C[C@@H]2CC[C@H](C1)N(C(=O)CCc1n[nH]c3c1CCCC3)C2	-4.659	-0.551	-9.11	3.772
CNC(=O)CCN1CCC(c2nnc(Cn3cccn3)n2C2CC2)CC1	-17.88	-0.5092	12.98	9.045
Cc1ccc2c(c1)C1(CCN(S(C)(=O)=O)CC1)CN2C(=O)N(C)C	1.604	-0.5947	-4.22	3.542
CCS(=O)(=O)c1ccc(CNc2c(Cl)cccc2C#N)cc1	-2.529	-3.445	-44.22	7.08
CS(=O)(=O)N1C[C@H]2CNC[C@@]2(C(=O)NCCCc2ccccc2)C1	-5.769	-6.74	-30.11	4.474
CC(C)(C)C(=O)N1C[C@@H](F)[C@@H](OCc2nc3ccccc3o2)C1	-4.091	-5.235	-34.24	1.866
COCCNC(=O)CCNC(=O)c1ccc(N2CCC(C)=N2)cc1	-0.1542	-3.767	-2.101	2.494
CCCN1CCc2[nH]cnc2C12CCN(C(=O)Cn1ccnc1C)CC2	-15.81	0.899	3.811	0.3151
O=C(c1cc2ccccc2[nH]1)N1CCC(Nc2cccnn2)CC1	-20.9	-1.271	6.479	1.249
O=C(NCCc1cccs1)N1CCCC1CCCO (centres undefined)	-5.403	-1.032	-33.3	-0.5963
CCCn1[nH]cc/c1=N\C(=O)CN1CCn2c(nnc2C2CC2)C1	30.05	-2.83	0.4946	-1.977
Cc1nc2cc(C(=O)N3C[C@@H](C(=O)O)[C@H](C4CC4)C3)ccc2[nH]1	3.686	-6.861	-21.33	0.1145
Cc1cc(N(C)Cc2c(C)noc2C)n2nc(C)c(C)c2n1	0.5392	8.273	-6.979	1.772
CC(C)(O)C1CCN(C(=O)Nc2nc(-c3ccccc3)ns2)CC1	-6.27	0.3353	1.443	8.236
CC(=O)N1CCN(C(=O)CCCc2nnc(-c3ccccc3)o2)CC1	-28.26	-3.115	1.034	-0.3656
O=C(c1ccsc1)N1CCc2c(nc(-c3ccncc3)[nH]c2=O)C1	-4.733	4.739	-22.58	2.621
COc1ccc(CCC(=O)N2CCCCC2Cn2cccn2)cc1F (centres undefined)	-46.31	-2.382	-9.385	1.179
CSCCC(=O)N1CCCC1c1nnc2n1CCCCC2 (centres undefined)	-18.78	-0.06456	-1.873	4.883
O=C(Cn1cccn1)Nc1ccc(N2CCOCC2)cc1	0.5126	1.765	-3.817	3.075
Cc1cc(C)n(CCC2CC(=O)Nc3cc4[nH]ncc4cc32)n1 (centres undefined)	-1.171	-3.905	-47.21	3.95
CC(C)CCN1CCc2[nH]nc(C(=O)N3CCCC3C)c2C1 (centres undefined)	-11.23	4.608	-4.264	4.313
CNC(=O)[C@@H]1COC[C@H]2CN(C(=O)c3ccc(OC)cc3)C[C@H]21	-8.504	-1.903	-17	2.155
COc1ccc(COCC(O)CNC(=O)c2cc(C)cc(C)c2)cc1 (centres undefined)	7.675	0.8772	-18.49	2.42

7 of the entries, repeated:

- CS(=O)(=O)N1C[C@H]2CNC[C@@]2(C(=O)NCCCc2ccccc2)C1 : A: -5.769%; B: -6.74%; C: -30.11%; D: 4.474%
- Cc1nc(N2CCCC2)nc2c1CCN(C(=O)N(C)C)CC2 : A: -8.266%; B: 1.66%; C: -5.935%; D: 2.216%
- COCCO[C@H]1CCN(c2ccc(C)nn2)[C@H]1Cc1cccnc1 : A: 14.12%; C: 8.724%; D: 2.37%
- COc1ccc(OC)c(CN2CCCCCC2c2cccs2)c1 (centres undefined) : A: 1.945%; B: 12.68%; C: 28.53%; D: -1.926%
- CN1CCCC1c1nccnc1-c1ccc(C(=O)O)cc1 (centres undefined) : A: 23.31%; B: 7.26%; C: -4.393%; D: 1.068%
- Cc1cccnc1NCCNC(=O)[C@H]1CNC[C@@H](C(=O)N2CCCC2)C1 : A: 0.1341%; B: -0.08224%; C: -12.22%; D: 4.311%
- O=C(c1ccsc1)N1CCc2c(nc(-c3ccncc3)[nH]c2=O)C1 : A: -4.733%; B: 4.739%; C: -22.58%; D: 2.621%